Read-outs that look alike come from different tables or passages of the source. No constants are given. Whether binding was seen depends on the method and setting. In cells and extracts the contact can be indirect. Some binding calls cover weakened binding; strength is not graded here.
Tests used:
Test in all cases: split reporter
[1] = target: T1, Cdc24 extended by the Cub-RUra3 module (Cdc24CRU) (yeast) (UniProt P11433)
T1 sequence: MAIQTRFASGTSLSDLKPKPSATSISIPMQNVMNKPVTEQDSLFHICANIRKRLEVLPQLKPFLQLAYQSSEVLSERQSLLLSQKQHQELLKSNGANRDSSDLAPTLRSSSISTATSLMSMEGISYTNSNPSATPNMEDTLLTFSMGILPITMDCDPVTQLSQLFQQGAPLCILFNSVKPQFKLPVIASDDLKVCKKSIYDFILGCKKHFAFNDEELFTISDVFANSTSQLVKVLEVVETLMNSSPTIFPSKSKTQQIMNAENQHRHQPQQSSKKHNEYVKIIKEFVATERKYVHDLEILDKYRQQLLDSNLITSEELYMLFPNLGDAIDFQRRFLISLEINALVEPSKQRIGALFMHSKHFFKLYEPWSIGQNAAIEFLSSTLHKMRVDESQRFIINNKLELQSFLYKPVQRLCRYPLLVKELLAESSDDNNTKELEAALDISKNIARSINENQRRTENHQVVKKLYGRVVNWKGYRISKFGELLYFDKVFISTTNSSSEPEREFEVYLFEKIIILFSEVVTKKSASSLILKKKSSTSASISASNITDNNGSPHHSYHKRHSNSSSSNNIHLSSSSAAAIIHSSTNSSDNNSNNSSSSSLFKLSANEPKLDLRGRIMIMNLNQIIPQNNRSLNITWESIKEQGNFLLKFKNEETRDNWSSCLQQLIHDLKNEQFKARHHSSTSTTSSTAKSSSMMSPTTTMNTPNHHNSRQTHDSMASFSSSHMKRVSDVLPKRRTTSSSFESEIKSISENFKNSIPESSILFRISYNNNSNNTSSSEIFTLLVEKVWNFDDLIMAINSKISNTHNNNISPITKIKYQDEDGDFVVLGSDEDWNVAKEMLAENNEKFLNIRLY

[2] = target: T2, Cdc24_(428-854)CRU (yeast) (UniProt P11433)
T2 sequence: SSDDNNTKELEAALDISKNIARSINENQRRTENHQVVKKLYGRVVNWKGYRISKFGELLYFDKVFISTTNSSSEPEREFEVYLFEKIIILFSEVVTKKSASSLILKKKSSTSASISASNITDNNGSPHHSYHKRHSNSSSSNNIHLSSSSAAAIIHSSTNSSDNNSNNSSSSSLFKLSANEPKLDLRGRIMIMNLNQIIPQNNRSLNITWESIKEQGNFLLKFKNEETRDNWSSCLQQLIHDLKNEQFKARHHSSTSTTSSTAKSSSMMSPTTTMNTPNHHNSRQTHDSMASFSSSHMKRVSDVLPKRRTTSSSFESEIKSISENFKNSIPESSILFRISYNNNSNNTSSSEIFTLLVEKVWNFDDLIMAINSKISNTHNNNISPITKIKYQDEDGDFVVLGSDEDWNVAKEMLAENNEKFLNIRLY

[3] = target: T3, Cdc24_(428-854D820A) CRU (yeast) (UniProt P11433)
T3 sequence: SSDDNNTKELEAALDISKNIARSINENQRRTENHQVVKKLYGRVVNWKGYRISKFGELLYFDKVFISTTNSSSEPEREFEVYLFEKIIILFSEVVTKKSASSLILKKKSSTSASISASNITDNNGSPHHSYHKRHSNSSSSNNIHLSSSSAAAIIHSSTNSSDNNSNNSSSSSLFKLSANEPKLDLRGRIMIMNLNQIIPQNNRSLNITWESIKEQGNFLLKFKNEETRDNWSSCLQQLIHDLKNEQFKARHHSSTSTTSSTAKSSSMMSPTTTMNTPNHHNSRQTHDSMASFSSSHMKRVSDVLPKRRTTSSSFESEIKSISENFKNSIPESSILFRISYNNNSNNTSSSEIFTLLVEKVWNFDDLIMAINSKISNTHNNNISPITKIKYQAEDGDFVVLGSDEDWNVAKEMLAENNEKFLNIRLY

[4] = target: T1, Cdc24 extended by the Cub-RUra3 module (Cdc24CRU) (yeast); remark: listed apart in the source
[5] = target: T4, CDC24_(428-759)CRU (yeast) (UniProt P11433)
T4 sequence: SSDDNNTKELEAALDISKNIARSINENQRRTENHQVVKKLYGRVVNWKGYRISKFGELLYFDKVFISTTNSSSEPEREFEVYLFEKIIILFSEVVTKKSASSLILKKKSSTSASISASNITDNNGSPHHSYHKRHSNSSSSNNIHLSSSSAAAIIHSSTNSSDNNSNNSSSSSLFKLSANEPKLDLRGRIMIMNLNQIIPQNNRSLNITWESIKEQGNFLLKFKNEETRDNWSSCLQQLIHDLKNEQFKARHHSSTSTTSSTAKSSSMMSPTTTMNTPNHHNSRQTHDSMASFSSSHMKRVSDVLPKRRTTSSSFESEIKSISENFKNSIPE

[6] = target: T5, Cdc24_(755-854)CRU (yeast) (UniProt P11433)
T5 sequence: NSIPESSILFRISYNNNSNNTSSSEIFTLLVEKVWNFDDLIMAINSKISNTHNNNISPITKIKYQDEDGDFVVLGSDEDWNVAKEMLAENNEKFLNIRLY

B1: Nub-Cdc11 (protein, UniProt P32458 1-415)
chain: MSGIIDASSALRKRKHLKRGITFTVMIVGQSGSGRSTFINTLCGQQVVDTSTTILLPTDTSTEIDLQLREETVELEDDEGVKIQLNIIDTPGFGDSLDNSPSFEIISDYIRHQYDEILLEESRVRRNPRFKDGRVHCCLYLINPTGHGLKEIDVEFIRQLGSLVNIIPVISKSDSLTRDELKLNKKLIMEDIDRWNLPIYNFPFDEDEISDEDYETNMYLRTLLPFAIIGSNEVYEMGGDVGTIRGRKYPWGILDVEDSSISDFVILRNALLISHLHDLKNYTHEILYERYRTEALSGESVAAESIRPNLTKLNGSSSSSTTTRRNTNPFKQSNNINNDVLNPASDMHGQSTGENNETYMTREEQIRLEEERLKAFEERVQQELLLKRQELLQREKELREIEARLEKEAKIKQEE
[1]
  binding: binds
[2]
  binding: binds
[3]
  binding: binds
[4]
  binding: binds
[5]
  binding: no binding
[6]
  binding: no binding

Reference: article doi:10.1101/719815 (bioRxiv, 2019)
